Assay results from PubChem BioAssay AID493014 (National Center for Advancing Translational Sciences (NCATS), 2011).
About 170 (0.05%) of roughly 340,000 compounds were called active. Inconclusive results, whose numbers are uncertain, are shown with a selection of clear calls. Calls follow the shape of the dose curve; as a rule, active = well fitted inhibition curve with a large enough effect in the signal ratio, with a control signal flat (not every such curve was filed as active); inconclusive = small, poorly fitted or top-dose-only effect, or effect the other way, or a change in a side signal; inactive = flat fitted curve, though single readings scatter; the % refers to the signal ratio. Potencies of inconclusive entries are doubtful fits and often do not repeat.

Test: qHTS Assay to Find Inhibitors of Chronic Active B-Cell Receptor Signaling;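 as to activity change, negative = inhibition: plate controls were basal doxycycline-induced cells for no effect and cells given 10 µM MG132 for full effect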
Settings: ABC-DLBCL IkBa-CBG/CBR reporter, luminescence ratio (green luciferase fused to IkBa over red control in TMD8 lymphoma cells), 4 h; activity change, negative = inhibition: at 46.1 µM (top of the series)
Procedure, shortened: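 Doxycycline induced both beetle luciferases in TMD8 lymphoma cells; IKK-driven degradation limits the IkappaBalpha-fused green signal, while red luminescence normalises for cell number and nonspecific effects. Compounds tested up to 46 uM, 4 hrs.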
Potency is read from the fitted curve at half-maximal effect.

SMILES | activity change, negative = inhibition | Potency
COc1cccc(OC)c1C(=O)N1CCN(C(=O)c2ccc(-c3ccccc3)cc2)CC1 | inconclusive: -8.43% | –
CN(Cc1c(F)cccc1Cl)C(=O)CCc1c[nH]c2ccccc12 | inactive | –
Oc1ccc(CNc2ccc(C(F)(F)F)cc2Cl)c2cccnc12 | – | inconclusive: 20.6 µM [falling, single point]
S=c1[nH]nc(C2CCCCC2)n1/N=C/c1cccc(Cl)c1Cl | inconclusive: 9.29% | –
O=C(Cn1c(=O)c2cccn2c2ccccc21)NCCc1ccccc1 | inconclusive: 5.6% | –
O=c1c2cc3ccccc3n2cnn1Cc1ccccc1F | inconclusive: 2.12% | –
COc1ccc(/C=C2/C(=O)ON=C2c2ccccc2)cc1OC | inconclusive: 15.2% | –
COC(=O)c1ccc(-c2nc3ccccc3[nH]2)cc1 | inconclusive: -6.98% | –
COc1ccc(-n2c(SCC(=O)Nc3ccc(C(N)=O)cc3)nc3c([nH]c4ccccc43)c2=O)cc1OC | – | inconclusive: 7.08 µM [falling, partial curve, poor fit]
CC(=O)c1ccc(/C=C/c2nc3ccccc3n2C)o1 | – | inconclusive: 35.5 µM [falling, single point]
Cc1ccc(C(=O)O)cc1N1C(=O)c2cccc3c([N+](=O)[O-])ccc(c23)C1=O | inconclusive: 7.34% | –
COc1cc(OC)c(/C=C2\C(=O)Nc3ccccc32)c(OC)c1 | – | inconclusive: 18.4 µM [cytotoxic, partial curve]
O=C1CCCCC1C(=O)c1ccccc1 (stereo not drawn) | inconclusive: 3.88% | –
CCOc1ccccc1CNc1ncnc2ccc(-c3c(C)noc3C)cc12 | inconclusive: -29.9% | inconclusive: 6.51 µM [falling, partial curve, poor fit]
CCCn1ncc(CN2CCC(n3nccc3NC(=O)c3ccccc3Cl)CC2)c1C | inactive | –
c1ccc(-c2csc3ncnc(N4CCN(Cc5ccc6c(c5)OCO6)CC4)c23)cc1 | inactive | –
C[C@H]1CN([C@@H](C)CO)C(=O)c2cccc(NC(=O)Nc3ccc(C(F)(F)F)cc3)c2O[C@@H]1CN(C)C(=O)Nc1ccc(F)cc1 | inconclusive: -14.3% | –
COc1ccc2cc(C=O)n(C)c2c1 | inconclusive: -2.8% | –
Cc1cc2cc(CNC(=O)Nc3ccccc3)ccc2n1C | inconclusive: 1.98% | –
CCOCCCNC(=S)N(CCN(C)C)Cc1cc2cc3c(cc2[nH]c1=O)OCCO3 | – | inconclusive: 5.62 µM [falling, partial curve, poor fit]
COc1ccc(-c2cnnn2-c2ccc(NC(=O)c3ccc(S(=O)(=O)N4CCCCC4)cc3)cc2)cc1 | inconclusive: 0.993% | –
Cc1cc(C)cc(NC(=S)N(CCCN2CCN(C)CC2)Cc2cccs2)c1 | inconclusive: 8.22% | –
Cc1ccc(/C=C2/SC(=S)N(CCC(=O)NCCCN3CCOCC3)C2=O)cc1 | inconclusive: -19.8% | –
Cc1cccc(N(CC(=O)NC2CCCCC2)C(=O)Cn2nnc(-c3ccc(C)o3)n2)c1 | inconclusive: -22.9% | –
COc1cc(S(=O)(=O)N2CCN(Cc3ccc4c(c3)OCO4)CC2)c(C)cc1C | inconclusive: -5.66% | –
COc1cccc(N2C(=O)CC(Sc3nc(C)cc(C)n3)C2=O)c1 (stereo not drawn) | inconclusive: 1.89% | –

3 compounds from above, sorted by heavy-atom count, ascending.
SMILES | activity change, negative = inhibition | Potency
S=c1[nH]nc(C2CCCCC2)n1/N=C/c1cccc(Cl)c1Cl | inconclusive: 9.29% | –
Cc1ccc(C(=O)O)cc1N1C(=O)c2cccc3c([N+](=O)[O-])ccc(c23)C1=O | inconclusive: 7.34% | –
COc1ccc(-c2cnnn2-c2ccc(NC(=O)c3ccc(S(=O)(=O)N4CCCCC4)cc3)cc2)cc1 | inconclusive: 0.993% | –

Additional compounds.

SMILES | activity change, negative = inhibition | Potency
CCOc1ccc(CN(C)C(=O)c2cc3ccccc3o2)cc1OC | inconclusive: -8.53% | –
Nc1ccc2c(c1)C(=O)N(CC1CCCO1)C2=O (stereo not drawn) | inconclusive: 10% | –
Cc1ccc(SCC(=O)N2CCCC2)cc1 | inconclusive: 1.77% | –
Cc1ccc(S(=O)(=O)C(C#N)c2nc3ccccc3nc2N2CCCC2)cc1 (stereo not drawn) | inconclusive: 7.22% | –
COc1cc(OC)c(S(=O)(=O)Nc2ccccc2N2CCOCC2)cc1NC(C)=O | inactive | –
CCc1ccc(N=CC2=C(O)CC(c3ccco3)CC2=O)cc1 (stereo not drawn) | inconclusive: 14.8% | –
CC(=O)[C@H]1CC[C@H]2[C@@H]3C=CC4=CC(=O)CC[C@@]4(C)[C@@H]3CC[C@]12C | inconclusive: -0.261% | –
O=C(c1ccc(Cl)cc1)C1CCCN(Cc2cccn2-c2ccccn2)C1 (stereo not drawn) | – | inconclusive: 25.1 µM [falling, single point]
COc1ccc(C(=O)C2CCCN(C(=O)c3cccnc3SC)C2)c(C)c1 (stereo not drawn) | inconclusive: 2.42% | –
N/C(=N\OC(=O)Cc1ccccc1)c1ccc(Br)cc1 | inconclusive: 0.618% | –
COc1cc(/C=N/NC(=O)c2cccc([N+](=O)[O-])c2)ccc1O | – | inconclusive: 17.8 µM [falling, partial curve, poor fit]
Cc1ccc2nc(-c3ccccc3)cn2c1 | – | inconclusive: 35.5 µM [rising, single point]
COC(=O)C1C(O)=C(C=Nc2cccc3ccccc23)C(=O)CC1(C)C (stereo not drawn) | – | inconclusive: 35.5 µM [cytotoxic, single point]
CC1CSC(N(C(=O)c2ccc(S(C)(=O)=O)cc2)c2ccc(Cl)cc2)=N1 (stereo not drawn) | inactive | –
O=C(Nc1ccc(F)cc1)c1sc(Cl)nc1-c1ccccc1 | inconclusive: -2% | –
Cc1ccc2nc(C)cc(Nc3ccc([N+](=O)[O-])cc3)c2c1 | inactive | –
COc1ccc(C(=O)OCCc2ccc(O)cc2)cc1 | inconclusive: -2.98% | –
COc1cc(Nc2nnc(C)s2)c(Cl)cc1Cl | inactive | –
CCCC(=O)N1CCN(c2nc3ccc(Cl)cc3s2)CC1 | – | inconclusive: 8.91 µM [rising, partial curve, poor fit]
S=C1CCC(c2ccc(Cl)cc2)=NN1c1ccccc1 | inconclusive: 7.12% | –
CCOc1cccc2c1OC(c1cc(OC)c(OC)c(OC)c1)N1N=C(c3ccc(C)o3)CC21 (stereo not drawn) | inactive | –
Cc1cccc2c1N(CCOc1ccc(C(C)(C)C)cc1)C(=O)C2=O | inactive | –
COc1ccc(OC)c(-n2c(C)ccc2-c2ccc(S(C)(=O)=O)cc2)c1 | inconclusive: 10.7% | –
NC(=S)C(c1ccccc1)c1ncc(C(F)(F)F)cc1Cl (stereo not drawn) | inactive | –
Cn1c(C(=O)OCC(=O)NCC2CCCO2)cc2sccc21 (stereo not drawn) | inconclusive: 9.74% | –
Cc1[nH]c2ccccc2c1C(c1ccccn1)c1c(C)[nH]c2ccccc12 | – | inconclusive: 29.1 µM [rising, single point]
